Assay results: the supplement of paper PMC10849652
The other results are listed elsewhere or left out.

The chains behind the UniProt entries cited, without tags or fusion partners. Where a name states a change or a piece, a line headed by the entry shows the natural chain unless it says otherwise.
UniProt Q4G148: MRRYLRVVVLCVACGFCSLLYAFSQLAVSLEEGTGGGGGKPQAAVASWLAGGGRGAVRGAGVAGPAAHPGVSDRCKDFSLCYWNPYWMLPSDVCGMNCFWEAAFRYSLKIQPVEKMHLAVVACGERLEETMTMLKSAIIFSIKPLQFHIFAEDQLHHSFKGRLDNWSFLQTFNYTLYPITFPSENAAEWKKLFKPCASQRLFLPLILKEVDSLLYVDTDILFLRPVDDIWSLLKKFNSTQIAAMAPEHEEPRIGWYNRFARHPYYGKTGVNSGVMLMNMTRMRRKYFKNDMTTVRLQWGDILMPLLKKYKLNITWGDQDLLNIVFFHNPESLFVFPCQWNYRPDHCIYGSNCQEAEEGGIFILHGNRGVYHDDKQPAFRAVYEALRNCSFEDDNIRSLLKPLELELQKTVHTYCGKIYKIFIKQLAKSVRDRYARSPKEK
UniProt Q8IYD1, whole entry, looked up: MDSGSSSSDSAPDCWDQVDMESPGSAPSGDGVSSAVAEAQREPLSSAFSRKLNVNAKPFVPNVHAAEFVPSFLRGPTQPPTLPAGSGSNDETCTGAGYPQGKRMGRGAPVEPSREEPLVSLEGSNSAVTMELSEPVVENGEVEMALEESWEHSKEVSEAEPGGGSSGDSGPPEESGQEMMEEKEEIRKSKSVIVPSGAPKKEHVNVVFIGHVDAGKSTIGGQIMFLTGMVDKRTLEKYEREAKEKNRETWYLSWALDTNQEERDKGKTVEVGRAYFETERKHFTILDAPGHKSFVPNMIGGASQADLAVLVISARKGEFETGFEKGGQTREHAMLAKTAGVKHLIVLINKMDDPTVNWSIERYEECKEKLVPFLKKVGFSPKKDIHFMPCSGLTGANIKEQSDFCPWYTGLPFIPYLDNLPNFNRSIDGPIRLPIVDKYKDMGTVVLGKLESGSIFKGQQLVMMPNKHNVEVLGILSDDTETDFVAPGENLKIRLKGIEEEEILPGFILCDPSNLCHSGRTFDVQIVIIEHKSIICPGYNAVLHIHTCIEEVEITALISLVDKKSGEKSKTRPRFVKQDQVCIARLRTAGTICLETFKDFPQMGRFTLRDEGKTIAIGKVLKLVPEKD
UniProt Q9P0R6: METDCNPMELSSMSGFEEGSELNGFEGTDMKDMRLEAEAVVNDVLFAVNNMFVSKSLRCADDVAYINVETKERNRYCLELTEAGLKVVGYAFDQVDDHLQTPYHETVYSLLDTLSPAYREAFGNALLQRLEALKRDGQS
UniProt P02042: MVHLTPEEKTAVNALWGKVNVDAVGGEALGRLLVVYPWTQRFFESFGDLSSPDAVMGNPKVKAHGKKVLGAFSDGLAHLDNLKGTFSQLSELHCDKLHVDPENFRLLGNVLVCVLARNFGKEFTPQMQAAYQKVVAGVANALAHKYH
UniProt Q9BQ67, whole entry, looked up: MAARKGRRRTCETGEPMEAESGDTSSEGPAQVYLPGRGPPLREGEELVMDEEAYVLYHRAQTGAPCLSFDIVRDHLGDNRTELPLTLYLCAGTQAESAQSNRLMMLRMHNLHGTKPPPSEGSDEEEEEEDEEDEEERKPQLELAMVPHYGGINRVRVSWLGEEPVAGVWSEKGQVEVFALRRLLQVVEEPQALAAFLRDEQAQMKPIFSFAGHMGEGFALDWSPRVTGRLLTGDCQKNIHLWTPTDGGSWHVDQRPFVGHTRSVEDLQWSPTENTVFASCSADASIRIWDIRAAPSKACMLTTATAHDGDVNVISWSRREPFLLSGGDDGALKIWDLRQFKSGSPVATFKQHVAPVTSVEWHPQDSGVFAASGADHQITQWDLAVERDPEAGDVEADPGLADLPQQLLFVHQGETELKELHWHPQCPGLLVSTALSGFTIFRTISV
UniProt P21266: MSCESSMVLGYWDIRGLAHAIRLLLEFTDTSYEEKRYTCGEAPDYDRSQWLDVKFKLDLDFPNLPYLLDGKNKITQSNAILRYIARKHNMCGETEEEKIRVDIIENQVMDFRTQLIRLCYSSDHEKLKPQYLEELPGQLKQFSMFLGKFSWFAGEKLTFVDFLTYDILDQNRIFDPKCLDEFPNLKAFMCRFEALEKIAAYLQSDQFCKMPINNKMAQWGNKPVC
UniProt Q92769, whole entry, looked up: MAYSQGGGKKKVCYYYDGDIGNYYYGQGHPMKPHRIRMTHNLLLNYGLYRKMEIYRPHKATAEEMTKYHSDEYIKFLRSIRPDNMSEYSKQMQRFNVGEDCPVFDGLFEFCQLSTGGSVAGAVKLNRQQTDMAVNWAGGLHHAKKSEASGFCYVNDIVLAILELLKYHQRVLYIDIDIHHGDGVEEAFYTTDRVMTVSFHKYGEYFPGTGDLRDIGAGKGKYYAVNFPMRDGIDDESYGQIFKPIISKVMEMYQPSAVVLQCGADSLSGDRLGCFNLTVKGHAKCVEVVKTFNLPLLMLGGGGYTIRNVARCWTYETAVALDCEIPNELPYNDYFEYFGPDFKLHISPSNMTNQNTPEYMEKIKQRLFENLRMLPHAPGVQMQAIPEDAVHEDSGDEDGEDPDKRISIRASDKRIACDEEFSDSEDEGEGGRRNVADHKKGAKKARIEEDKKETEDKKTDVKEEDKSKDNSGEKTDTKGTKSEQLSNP
UniProt Q9UJ83: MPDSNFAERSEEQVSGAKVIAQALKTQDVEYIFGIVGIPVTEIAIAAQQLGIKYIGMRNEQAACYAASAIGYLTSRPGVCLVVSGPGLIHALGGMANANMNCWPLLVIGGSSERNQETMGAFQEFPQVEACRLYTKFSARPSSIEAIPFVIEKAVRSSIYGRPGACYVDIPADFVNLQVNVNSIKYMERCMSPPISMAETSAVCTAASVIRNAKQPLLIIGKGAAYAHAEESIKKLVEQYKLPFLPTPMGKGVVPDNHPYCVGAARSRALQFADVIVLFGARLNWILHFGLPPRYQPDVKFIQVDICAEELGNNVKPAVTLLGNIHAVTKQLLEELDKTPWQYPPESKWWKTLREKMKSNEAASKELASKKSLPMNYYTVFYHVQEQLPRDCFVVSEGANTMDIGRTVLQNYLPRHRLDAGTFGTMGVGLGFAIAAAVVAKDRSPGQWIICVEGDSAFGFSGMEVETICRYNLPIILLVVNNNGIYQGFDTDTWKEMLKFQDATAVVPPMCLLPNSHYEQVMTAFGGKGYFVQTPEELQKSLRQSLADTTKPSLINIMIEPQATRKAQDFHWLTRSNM
UniProt P29084: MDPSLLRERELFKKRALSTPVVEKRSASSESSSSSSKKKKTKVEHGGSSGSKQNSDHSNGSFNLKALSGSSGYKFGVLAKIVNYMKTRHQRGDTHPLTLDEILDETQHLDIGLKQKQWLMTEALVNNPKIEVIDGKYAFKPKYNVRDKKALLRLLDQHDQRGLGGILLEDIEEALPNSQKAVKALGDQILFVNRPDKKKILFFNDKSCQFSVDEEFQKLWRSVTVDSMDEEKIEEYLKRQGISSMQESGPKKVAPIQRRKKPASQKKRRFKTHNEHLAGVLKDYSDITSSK
UniProt Q00403, whole entry, looked up: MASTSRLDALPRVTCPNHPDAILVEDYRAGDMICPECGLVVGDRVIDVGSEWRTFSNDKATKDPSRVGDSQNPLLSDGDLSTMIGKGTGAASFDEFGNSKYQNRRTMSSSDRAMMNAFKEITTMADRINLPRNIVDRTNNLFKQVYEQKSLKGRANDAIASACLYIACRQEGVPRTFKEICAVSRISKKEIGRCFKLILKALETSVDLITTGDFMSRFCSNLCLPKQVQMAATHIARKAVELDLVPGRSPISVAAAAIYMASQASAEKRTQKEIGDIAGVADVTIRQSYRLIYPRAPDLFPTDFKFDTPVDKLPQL
UniProt P62993, whole entry, looked up: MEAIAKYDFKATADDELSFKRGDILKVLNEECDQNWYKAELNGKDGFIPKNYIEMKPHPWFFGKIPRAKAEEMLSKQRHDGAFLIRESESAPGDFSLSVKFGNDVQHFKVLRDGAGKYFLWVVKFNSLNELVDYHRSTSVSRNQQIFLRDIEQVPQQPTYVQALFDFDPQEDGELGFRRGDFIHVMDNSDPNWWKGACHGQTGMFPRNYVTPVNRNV
UniProt O00178: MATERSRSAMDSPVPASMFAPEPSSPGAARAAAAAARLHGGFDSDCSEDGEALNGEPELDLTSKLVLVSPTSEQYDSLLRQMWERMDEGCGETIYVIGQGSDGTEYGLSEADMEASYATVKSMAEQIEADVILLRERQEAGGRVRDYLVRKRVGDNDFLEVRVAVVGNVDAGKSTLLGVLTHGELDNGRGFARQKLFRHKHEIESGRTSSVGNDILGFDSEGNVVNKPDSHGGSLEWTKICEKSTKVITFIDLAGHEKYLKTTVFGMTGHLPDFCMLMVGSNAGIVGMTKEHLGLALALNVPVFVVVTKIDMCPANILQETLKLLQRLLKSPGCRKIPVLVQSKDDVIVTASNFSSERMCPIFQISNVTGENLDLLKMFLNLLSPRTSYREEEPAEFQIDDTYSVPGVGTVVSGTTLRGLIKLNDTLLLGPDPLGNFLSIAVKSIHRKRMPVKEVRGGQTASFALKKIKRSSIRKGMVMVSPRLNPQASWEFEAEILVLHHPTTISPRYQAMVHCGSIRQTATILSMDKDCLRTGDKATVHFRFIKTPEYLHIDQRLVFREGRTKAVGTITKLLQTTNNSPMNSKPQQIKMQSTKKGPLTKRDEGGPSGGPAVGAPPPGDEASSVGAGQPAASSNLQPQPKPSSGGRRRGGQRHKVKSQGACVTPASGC
UniProt P46976: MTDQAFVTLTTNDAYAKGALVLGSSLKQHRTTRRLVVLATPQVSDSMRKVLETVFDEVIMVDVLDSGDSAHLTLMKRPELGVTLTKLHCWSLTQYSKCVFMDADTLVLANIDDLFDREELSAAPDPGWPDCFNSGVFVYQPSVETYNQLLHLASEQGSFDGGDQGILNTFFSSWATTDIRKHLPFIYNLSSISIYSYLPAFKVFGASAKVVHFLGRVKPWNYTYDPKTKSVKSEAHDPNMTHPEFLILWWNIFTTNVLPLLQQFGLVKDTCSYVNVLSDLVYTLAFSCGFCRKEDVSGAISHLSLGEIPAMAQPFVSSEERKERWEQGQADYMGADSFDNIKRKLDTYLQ
UniProt Q16836: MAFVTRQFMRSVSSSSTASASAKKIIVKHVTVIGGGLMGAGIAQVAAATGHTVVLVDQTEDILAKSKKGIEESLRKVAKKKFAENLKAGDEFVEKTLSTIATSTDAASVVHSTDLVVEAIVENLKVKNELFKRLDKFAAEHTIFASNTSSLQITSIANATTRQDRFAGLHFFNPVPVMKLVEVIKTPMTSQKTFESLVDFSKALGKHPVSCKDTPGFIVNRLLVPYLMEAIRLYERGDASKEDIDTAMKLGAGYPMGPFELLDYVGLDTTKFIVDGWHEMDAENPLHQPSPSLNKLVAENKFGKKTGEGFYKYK
UniProt A4D1E9: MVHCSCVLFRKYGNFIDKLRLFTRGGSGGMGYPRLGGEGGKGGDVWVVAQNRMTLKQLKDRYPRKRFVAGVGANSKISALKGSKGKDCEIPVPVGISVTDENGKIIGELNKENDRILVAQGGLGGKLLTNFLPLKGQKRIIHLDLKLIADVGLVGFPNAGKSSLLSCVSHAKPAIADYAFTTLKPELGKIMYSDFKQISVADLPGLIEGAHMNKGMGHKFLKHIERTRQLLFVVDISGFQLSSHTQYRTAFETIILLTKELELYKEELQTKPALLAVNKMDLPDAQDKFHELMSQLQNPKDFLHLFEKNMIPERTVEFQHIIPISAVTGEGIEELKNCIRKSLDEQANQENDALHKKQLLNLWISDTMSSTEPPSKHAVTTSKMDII

What was measured:
Test in all cases: log2 fold change, soluble protein after heating vs DMSO (PISA); higher = thermal stabilisation; K562 lysate, 10 uM; active = over 0.2 and 3.5 SD of the protein, either way, in both replicates (recomputed)
[1] = compound: C#Cc1cccc(Nc2ncnc3cc(OCCOC)c(OCCOC)cc23)c1 [erlotinib]
In short: (§1)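 Pellets of K562 cells were dounce-homogenised in PBS pH 7.4 with 1 mM MgCl2, and the crude extract was held at 1 mg/mL protein for a 30 min treatment with 10 μM compound. Aliquots were heated for 3 min over 48°C-58°C and pooled before NP-40 was added to 0.5% at 4°C. The supernatant from 21,000xg for 90 min was quantified by TMTpro 16plex LC-MS/MS with channel sums equalised. Values are reported from duplicates as log-two fold change in thermal stability relative to solvent controls.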

[2] = compound: C/C(=N\NC(=O)C1=CC(=CC=C1)S(=O)(=O)N2CCOCC2)/C3=C(C=CC(=C3)Cl)O
In short: as §1

[3] = compound: C1=CC(=CC=C1C2=NC3=C(N2)C=C(C=C3)C(=O)N)OC4=CC=C(C=C4)Cl
In short: as §1

[4] = compound: C1=CC2=C(C=CC(=C2)/C=C\3/C(=O)NC(=NCC4=CC=CS4)S3)N=C1
In short: as §1

[5] = compound: C1=CC2=NC=CN=C2C=C1/C=C/3\C(=O)NC(=O)S3
In short: as §1

[6] = compound: C1=CC=C(C=C1)C2=NC(=C(N2)C3=CC=NC=C3)C4=CC(=C(C=C4)Cl)O
In short: as §1

[7] = compound: C1=CC=C2C(=C1)C3=NNC4=CC=CC(=C43)C2=O
In short: as §1

[8] = compound: C1CCN(C1)C(=O)NC2=CC=CC(=C2)NC3=NC=C(C(=N3)NCCC4=CN=CN4)Br
In short: as §1

[9] = compound: C1CN(CCC1(CC2=CC=C(C=C2)Cl)N)C3=NC=NC4=C3C=CN4
In short: as §1

[10] = compound: C1COCCN1CCN2C3=CC=CC=C3N=C2NC(=O)C4=CC(=CC=C4)[N+](=O)[O-] [IRAK-1-4 Inhibitor I]
In short: as §1

[11] = compound: C=CC(=O)N1CCC[C@@H](n2nc(-c3ccc(Oc4ccccc4)cc3)c3c(N)ncnc32)C1 [ibrutinib]
In short: as §1

[12] = compound: CC(=O)c1cnc2ccc(-c3cc(Cl)c(O)c(Cl)c3)nc2c1N[C@H]1CC[C@H](CN(C)C)CC1
In short: as §1

[13] = compound: CC(C)(C)Cn1c(N)nc2ccc(-c3[nH]c(C(C)(C)C)nc3-c3ccc(F)cc3)nc21 [ralimetinib]
In short: as §1

[14] = compound: CC(C)(O)CC(=O)NCCn1ccc2ncnc(Nc3ccc(Oc4cccc(C(F)(F)F)c4)c(Cl)c3)c21
In short: as §1

[15] = compound: CC(C)C1=C2N=C(C=C(N2N=C1)NCC3=CC=CC=C3)NCCCCCCN
In short: as §1

[16] = compound: CC1=C(C(CC(=O)N1)C2=CC=C(C=C2)C(F)(F)F)C(=O)NC3=C(C=C4C(=C3)C=NN4)F
In short: as §1

[17] = compound: CC1=C(C2=C(C=C1)C(=O)C3=CC=CC=C3N2CCCN)C
In short: as §1

[18] = compound: CC1=C(C=C(C=C1)NC(=O)C2=CC(=CC=C2)C(C)(C)C#N)NC3=CC4=C(C=C3)N=CN(C4=O)C
In short: as §1

[19] = compound: CC1=C(C=C(C=C1)NC(=O)C2=CC(=CC=C2)N(C)C)NC(=O)C3=CC=C(C=C3)O
In short: as §1

[20] = compound: CC1=CC=C(C=C1)SC2=C3C=C(SC3=CN=C2)C(=O)N
In short: as §1

Measured: log2 fold change

GXYLT1 (UniProt Q4G148)
inactive: [1] -0.09 | [2] 0.016 | [3] -0.039 | [4] 0.085 | [5] -0.075 | [6] -0.052 | [7] -0.052 | [8] -0.044 | [9] 0.081 | [10] 0.054 | [11] -0.016 | [12] -0.045 | [13] 0.031 | [14] -0.017 | [15] -0.029 | [16] 0.078 | [17] -0.169 | [18] -0.07 | [19] -0.028 | [20] -0.054

GSPT2 (UniProt Q8IYD1)
inactive: [1] 0 | [2] 0.09 | [3] 0.035 | [4] -0.015 | [5] 0 | [6] -0.008 | [7] -0.005 | [8] 0.036 | [9] 0.019 | [10] -0.039 | [11] 0.002 | [12] -0.001 | [13] -0.007 | [14] 0 | [15] -0.047 | [16] 0.029 | [17] 0.021 | [18] 0.014 | [19] -0.052 | [20] 0.054

GSKIP (UniProt Q9P0R6)
inactive: [1] -0.233 | [2] -0.063 | [3] -0.125 | [4] 0.07 | [5] 0.001 | [6] -0.054 | [7] -0.199 | [8] -0.032 | [9] 0.001 | [10] -0.045 | [11] -0.007 | [12] -0.075 | [13] 0.032 | [14] -0.048 | [15] 0.109 | [16] 0.111 | [17] 0.031 | [18] 0.297 | [19] -0.01 | [20] 0.034

HBD (UniProt P02042)
inactive: [1] 0.046 | [2] 0.007 | [3] 0.003 | [4] 0.002 | [5] -0.013 | [6] 0.025 | [7] 0.006 | [8] 0.021 | [9] 0.061 | [10] -0.028 | [11] 0.094 | [12] -0.059 | [13] -0.016 | [14] -0.039 | [15] -0.065 | [16] 0.025 | [17] -0.006 | [18] 0.081 | [19] 0.008 | [20] 0.07

GRWD1 (UniProt Q9BQ67)
inactive: [1] -0.027 | [2] -0.129 | [3] 0.053 | [4] -0.008 | [5] -0.002 | [6] -0.013 | [7] -0.013 | [8] 0.015 | [9] 0.036 | [10] 0.008 | [11] 0.03 | [12] -0.028 | [13] 0.025 | [14] -0.009 | [15] 0.019 | [16] -0.011 | [17] -0.042 | [18] 0.011 | [19] 0.002 | [20] -0.009

GSTM3 (UniProt P21266)
inactive: [1] 0.035 | [2] 0.008 | [3] 0.004 | [4] 0.009 | [5] 0.092 | [6] 0.031 | [7] 0.017 | [8] -0.046 | [9] -0.018 | [10] -0.033 | [11] 0.139 | [12] 0.061 | [13] -0.065 | [14] -0.017 | [15] 0 | [16] 0.027 | [17] -0.002 | [18] 0.045 | [19] -0.022 | [20] 0.072

HDAC2 (UniProt Q92769)
inactive: [1] -0.02 | [2] 0.021 | [3] -0.001 | [4] 0.012 | [5] -0.013 | [6] -0.004 | [7] -0.009 | [8] -0.013 | [9] -0.001 | [10] -0.017 | [11] 0 | [12] -0.008 | [13] -0.005 | [14] -0.029 | [15] -0.001 | [16] -0.013 | [17] -0.01 | [18] -0.025 | [19] -0.016 | [20] -0.013

HACL1 (UniProt Q9UJ83)
inactive: [1] -0.006 | [2] -0.031 | [3] 0.001 | [4] 0.006 | [5] -0.016 | [6] 0.017 | [7] -0.033 | [8] -0.013 | [9] 0.01 | [10] 0.024 | [11] 0.013 | [12] 0.015 | [13] -0.017 | [14] 0.002 | [15] -0.047 | [16] 0 | [17] -0.013 | [18] 0.002 | [19] -0.014 | [20] 0.021

2 successive records out of the list so far, quoted:
HDAC2 (UniProt Q92769)
inactive: [1] -0.02 | [2] 0.021 | [3] -0.001 | [4] 0.012 | [5] -0.013 | [6] -0.004 | [7] -0.009 | [8] -0.013 | [9] -0.001 | [10] -0.017 | [11] 0 | [12] -0.008 | [13] -0.005 | [14] -0.029 | [15] -0.001 | [16] -0.013 | [17] -0.01 | [18] -0.025 | [19] -0.016 | [20] -0.013

HACL1 (UniProt Q9UJ83)
inactive: [1] -0.006 | [2] -0.031 | [3] 0.001 | [4] 0.006 | [5] -0.016 | [6] 0.017 | [7] -0.033 | [8] -0.013 | [9] 0.01 | [10] 0.024 | [11] 0.013 | [12] 0.015 | [13] -0.017 | [14] 0.002 | [15] -0.047 | [16] 0 | [17] -0.013 | [18] 0.002 | [19] -0.014 | [20] 0.021

Following part

GTF2E2 (UniProt P29084)
inactive: [1] -0.081 | [2] -0.064 | [3] -0.058 | [4] -0.033 | [5] -0.041 | [6] -0.011 | [7] -0.017 | [8] 0 | [9] 0.017 | [10] -0.023 | [11] 0.017 | [12] 0.013 | [13] 0.014 | [14] 0.104 | [15] -0.03 | [16] -0.006 | [17] -0.035 | [18] 0.079 | [19] -0.004 | [20] 0.019

GTF2B (UniProt Q00403)
inactive: [1] 0.043 | [2] 0.031 | [3] -0.023 | [4] 0.011 | [5] 0.066 | [6] 0.039 | [7] -0.031 | [8] -0.023 | [9] 0.018 | [10] -0.019 | [11] 0.017 | [12] 0.023 | [13] 0.001 | [14] -0.001 | [15] 0.046 | [16] 0.025 | [17] 0.043 | [18] 0.021 | [19] -0.014 | [20] -0.016

GRB2 (UniProt P62993)
inactive: [1] -0.017 | [2] -0.06 | [3] 0.02 | [4] 0.022 | [5] -0.008 | [6] 0.006 | [7] -0.013 | [8] 0.018 | [9] 0.002 | [10] -0.009 | [11] -0.005 | [12] 0.004 | [13] -0.032 | [14] -0.018 | [15] -0.015 | [16] -0.004 | [17] 0 | [18] -0.003 | [19] -0.003 | [20] -0.021

GTPBP1 (UniProt O00178)
inactive: [1] 0.011 | [2] -0.048 | [3] 0.024 | [4] 0.014 | [5] -0.007 | [6] 0.001 | [7] -0.01 | [8] -0.015 | [9] 0.009 | [10] -0.018 | [11] -0.004 | [12] -0.002 | [13] 0.025 | [14] -0.002 | [15] 0.009 | [16] 0.002 | [17] -0.039 | [18] 0.028 | [19] 0.001 | [20] 0.007

GYG1 isoform 2 (UniProt P46976)
inactive: [1] 0.025 | [2] -0.05 | [3] 0.22 | [4] 0.051 | [5] 0 | [6] 0.027 | [7] 0.459 | [8] 0.009 | [9] -0.047 | [10] 0.03 | [11] -0.011 | [12] 0.007 | [13] -0.039 | [14] -0.1 | [15] -0.091 | [16] -0.022 | [17] -0.054 | [18] -0.067 | [19] -0.041 | [20] 0.004

HADH isoform 2 (UniProt Q16836)
inactive: [1] -0.052 | [2] 0.065 | [3] 0.023 | [4] 0.08 | [5] -0.03 | [6] 0.003 | [7] -0.015 | [8] -0.015 | [9] -0.028 | [10] 0.008 | [11] -0.004 | [12] 0.02 | [13] -0.023 | [14] -0.011 | [15] -0.036 | [16] 0.013 | [17] -0.045 | [18] -0.039 | [19] 0.028 | [20] 0.004

GTPBP10 (UniProt A4D1E9)
inactive: [1] 0.053 | [2] -0.494 | [3] -0.002 | [4] 0.003 | [5] 0.066 | [6] -0.006 | [7] -0.091 | [8] -0.089 | [9] 0.045 | [10] -0.005 | [11] -0.076 | [12] 0.049 | [13] -0.004 | [14] 0.03 | [15] 0.023 | [16] 0.077 | [17] -0.028 | [18] 0.041 | [19] 0.065 | [20] 0.073
